± gives the standard deviation of the averaged measurements. Most values lie at the level of the controls, where differences are scatter.
Columns and labels:
Assay in all cases: level (log10 ratio to DMSO vehicle control); higher = higher biomarker level / cell amount than vehicle control
[1] = compound: OCC(F)(F)C(F)(F)C(F)(F)C(F)(F)C(F)(F)C(F)(F)CO [1H,1H,8H,8H-Perfluorooctane-1,8-diol] (in DMSO); settings: 2200 nM
Description: (§1)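 BioMAP Diversity Plus panel of 12 human primary cell co-culture systems (3C, 4H, LPS, SAg, BT, BF4T, BE3C, CASM3C, HDF3CGF, KF3CT, MyoF, Mphg). Compounds were added 1 h before stimulation and left for 24 h (MyoF 48 h; BT 72 h for soluble read-outs or 6 d for IgG). Biomarkers were read by ELISA, cytotoxicity by SRB, PBMC viability and proliferation by Alamar Blue. Each well value was divided by the mean of 8 DMSO control wells on the same plate and log10 transformed; duplicate blinded samples were tested at 4 concentrations.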

[2] = compound: C=C(C)C(=O)OCCC(F)(F)C(F)(F)C(F)(F)C(F)(F)C(F)(F)C(F)(F)F [6:2 Fluorotelomer methacrylate] (in DMSO); settings: 2200 nM
Description: as §1

[3] = compound: OCC(F)(F)OC(F)(F)C(F)(F)OC(F)(F)CO [1H,1H,8H,8H-Perfluoro-3,6-dioxaoctane-1,8-diol] (in DMSO); settings: 2200 nM
Description: as §1

Hexafluoroglutaric acid = compound: O=C(O)C(F)(F)C(F)(F)C(F)(F)C(=O)O [Hexafluoroglutaric acid] (in DMSO)
Description: as §1

[4] = compound: O=C(O)C(F)(F)C(F)(F)C(F)(F)OC(F)(C(F)(F)F)C(F)(F)F [Perfluoro-4-isopropoxybutanoic acid] (in DMSO); settings: 2200 nM
Description: as §1

[5] = compound: FC(F)(F)C(F)(F)C(F)(F)C(F)(F)CCI [1H,1H,2H,2H-Perfluorohexyl iodide] (in DMSO); settings: 2200 nM
Description: as §1

[6] = compound: FC(F)(F)C(F)(F)CNCC(F)(F)C(F)(F)F [Bis(1H,1H-perfluoropropyl)amine] (in DMSO); settings: 2200 nM
Description: as §1

[7] = compound: O=C(O)C(F)(OC(F)(F)C(F)(F)C(F)(F)F)C(F)(F)F [Ammonium perfluoro-2-methyl-3-oxahexanoate] (in Water)
Description: as §1

[8] = compound: O=S(=O)(O)C(F)(F)C(F)(F)C(F)(F)C(F)(F)F [Perfluorobutanesulfonic acid] (in DMSO)
Description: as §1

[9] = compound: O=C(O)CCC(F)(F)C(F)(F)C(F)(F)F [3:3 Fluorotelomer carboxylic acid] (in DMSO); settings: 2200 nM
Description: as §1

[10] = compound: OCC(F)(F)C(F)(F)C(F)(F)C(F)F [1H,1H,5H-Perfluoropentanol] (in DMSO); settings: 2200 nM
Description: as §1

[11] = compound: OCCCC(F)(F)C(F)(F)C(F)(F)C(F)(F)C(F)(F)C(F)(F)C(F)(F)C(F)(F)F [3-(Perfluorooctyl)propanol] (in DMSO); settings: 2200 nM
Description: as §1

[12] = compound: CNS(=O)(=O)C(F)(F)C(F)(F)C(F)(F)C(F)(F)C(F)(F)C(F)(F)C(F)(F)C(F)(F)F [N-Methylperfluorooctanesulfonamide] (in DMSO); settings: 2200 nM
Description: as §1

[13] = compound: O=C(O)C(F)(OC(F)(F)C(F)(OC(F)(F)C(F)(OC(F)(F)C(F)(F)C(F)(F)F)C(F)(F)F)C(F)(F)F)C(F)(F)F [Perfluoro-(2,5,8-trimethyl-3,6,9-trioxadodecanoic)acid] (in DMSO); settings: 370 nM
Description: as §1

[14] = compound: FC(F)(F)COC(OCC(F)(F)F)OCC(F)(F)F [tris(Trifluoroethoxy)methane] (in DMSO); settings: 2200 nM
Description: as §1

Perfluorohexanoic acid = compound: O=C(O)C(F)(F)C(F)(F)C(F)(F)C(F)(F)C(F)(F)F [Perfluorohexanoic acid] (in DMSO)
Description: as §1

[15] = compound: OCC(F)(F)C(F)(F)C(F)(F)C(F)(F)C(F)(F)C(F)(F)F [6:1 Fluorotelomer alcohol] (in DMSO); settings: 2200 nM
Description: as §1

Test System | level (log10) [1] | level (log10) [2] | level (log10) [3] | level (log10) (Hexafluoroglutaric acid; 2200 nM) | level (log10) (Hexafluoroglutaric acid; 6700 nM) | level (log10) (Hexafluoroglutaric acid; 20000 nM) | level (log10) (Hexafluoroglutaric acid; 60000 nM) | level (log10) [4] | level (log10) [5] | level (log10) [6] | level (log10) ([7]; 2200 nM) | level (log10) ([7]; 6700 nM) | level (log10) ([7]; 20000 nM) | level (log10) ([7]; 60000 nM) | level (log10) ([8]; 2200 nM) | level (log10) ([8]; 6700 nM) | level (log10) ([8]; 20000 nM) | level (log10) ([8]; 60000 nM) | level (log10) [9] | level (log10) [10] | level (log10) [11] | level (log10) [12] | level (log10) [13] | level (log10) [14] | level (log10) (Perfluorohexanoic acid; 2200 nM) | level (log10) (Perfluorohexanoic acid; 6700 nM) | level (log10) (Perfluorohexanoic acid; 20000 nM) | level (log10) (Perfluorohexanoic acid; 60000 nM) | level (log10) [15]
BE3C:MMP-1 | 0.0295 ± 0.061 | 0.019 ± 0.0028 | 0.0565 ± 0.0035 | -0.0315 ± 0.00071 | -0.011 ± 0.0099 | -0.023 ± 0.016 | 0.007 ± 0.058 | 0.0165 ± 0.0078 | 0.0235 ± 0.00071 | 0.026 ± 0.081 | 0.0495 ± 0.005 | 0.0325 ± 0.032 | 0.062 ± 0.038 | 0.136 ± 0.013 | -0.0075 ± 0.0035 | 0.0055 ± 0.028 | -0.011 ± 0.0057 | 0.019 ± 0.013 | 0.0035 ± 0.033 | 0.001 ± 0.0042 | 0.038 ± 0.083 | 0.088 ± 0.011 | -0.003 ± 0.0028 | 0.012 ± 0.079 | -0.009 ± 0.0099 | -0.0075 ± 0.0064 | 0 ± 0.011 | 0.0275 ± 0.012 | 0.0095 ± 0.0092
SAg:Proliferation | -0.0015 ± 0.011 | -0.0425 ± 0.093 | 0.0045 ± 0.015 | 0.051 ± 0.024 | -0.019 ± 0.0071 | -0.0445 ± 0.033 | -0.0275 ± 0.013 | 0.006 ± 0.0057 | 0.01 ± 0.0057 | 0.011 ± 0.023 | 0.021 ± 0.033 | -0.0005 ± 0.028 | -0.043 ± 0.028 | -0.0265 ± 0.049 | -0.013 ± 0.059 | -0.0295 ± 0.11 | -0.0385 ± 0.023 | 0.039 ± 0.017 | 0.007 ± 0.047 | -0.022 ± 0.0099 | -0.0035 ± 0.019 | 0.033 ± 0.065 | -0.03 ± 0.089 | 0.0085 ± 0.029 | 0.036 ± 0.011 | 0.0065 ± 0.011 | 0.003 ± 0.021 | 0.027 ± 0.0042 | 0.002 ± 0.03
LPS:CCL2/MCP-1 | 0.024 ± 0.0028 | -0.0045 ± 0.037 | 0.0055 ± 0.013 | -0.0075 ± 0.026 | -0.0135 ± 0.026 | -0.012 ± 0.011 | -0.004 ± 0.013 | -0.0095 ± 0.03 | -0.015 ± 0.011 | 0.008 ± 0.0099 | 0.027 ± 0.018 | 0.0325 ± 0.033 | -0.017 ± 0.023 | -0.001 ± 0.0014 | -0.035 ± 0.079 | -0.0285 ± 0.057 | -0.021 ± 0.027 | -0.035 ± 0.0014 | -0.0005 ± 0.025 | 0.01 ± 0.037 | -0.0055 ± 0.03 | 0.013 ± 0.016 | 0.0045 ± 0.044 | 0.0295 ± 0.081 | 0.0005 ± 0.023 | -0.0035 ± 0.00071 | -0.008 ± 0.027 | -0.0045 ± 0.018 | -0.0045 ± 0.033
MyoF:Collagen IV | 0.022 ± 0.033 | 0.0095 ± 0.06 | 0.006 ± 0.024 | -0.006 ± 0.018 | -0.004 ± 0.013 | 0.002 ± 0.021 | -0.0055 ± 0.0064 | 0.015 ± 0.013 | 0.016 ± 0.0042 | -0.034 ± 0.017 | 0.012 ± 0.023 | -0.013 ± 0.0057 | 0.0045 ± 0.011 | 0.0105 ± 0.012 | 0.023 ± 0.045 | 0.04 ± 0.0057 | 0.0055 ± 0.033 | 0.016 ± 0.013 | -0.026 ± 0.0057 | 0.015 ± 0.034 | 0 ± 0.0014 | 0.0775 ± 0.032 | 0.0235 ± 0.0092 | 0.0195 ± 0.012 | 0.025 ± 0.033 | 0.0245 ± 0.0064 | 0.0165 ± 0.0064 | 0.0345 ± 0.037 | -0.03 ± 0.0028
BF4T:CXCL8/IL-8 | 0.013 ± 0.018 | 0.0195 ± 0.11 | 0.0285 ± 0.043 | 0.042 ± 0.048 | 0.0125 ± 0.039 | 0.009 ± 0.041 | 0.0345 ± 0.0035 | 0.0045 ± 0.049 | 0.029 ± 0.045 | -0.011 ± 0.051 | -0.005 ± 0.057 | -0.0135 ± 0.036 | 0.0295 ± 0.028 | 0.0255 ± 0.03 | -0.0245 ± 0.04 | -0.0205 ± 0.0064 | 0.006 ± 0.0057 | 0.0095 ± 0.013 | -0.0075 ± 0.005 | 0.0505 ± 0.037 | 0.019 ± 0.035 | -0.0105 ± 0.044 | 0.0475 ± 0.056 | 0.015 ± 0.057 | 0.035 ± 0.0014 | -0.0055 ± 0.025 | 0.0155 ± 0.0078 | 0.0415 ± 0.042 | 0.033 ± 0.051
BE3C:tPA | 0.0125 ± 0.0064 | -0.0395 ± 0.015 | -0.011 ± 0.011 | -0.01 ± 0.02 | -0.008 ± 0.0014 | -0.0465 ± 0.005 | -0.0085 ± 0.022 | -0.006 ± 0.017 | 0.0135 ± 0.011 | 0.002 ± 0.051 | -0.053 ± 0.034 | -0.101 ± 0.047 | -0.0935 ± 0.021 | -0.0945 ± 0.021 | -0.01 ± 0.014 | 0.0155 ± 0.022 | -0.0135 ± 0.0078 | 0 ± 0.025 | -0.0125 ± 0.022 | 0.0025 ± 0.015 | 0.0155 ± 0.011 | 0.186 ± 0.035 | -0.013 ± 0.023 | -0.0225 ± 0.028 | -0.0235 ± 0.067 | -0.032 ± 0.054 | -0.0405 ± 0.016 | -0.046 ± 0.018 | -0.011 ± 0.0042
3C:CXCL8/IL-8 | 0.032 ± 0.021 | 0.0205 ± 0.035 | 0.029 ± 0.013 | -0.0065 ± 0.029 | -0.033 ± 0.0057 | -0.0185 ± 0.018 | 0.0015 ± 0.044 | 0.0185 ± 0.036 | -0.007 ± 0.042 | 0.0405 ± 0.03 | 0.0575 ± 0.032 | 0.038 ± 0.037 | 0.0745 ± 0.029 | 0.131 ± 0.014 | -0.001 ± 0.0028 | 0.0045 ± 0.00071 | 0.008 ± 0.021 | 0.071 ± 0.04 | -0.009 ± 0.016 | 0.0455 ± 0.013 | 0.0155 ± 0.044 | 0.0335 ± 0.046 | 0.0085 ± 0.022 | 0.019 ± 0.025 | -0.004 ± 0.013 | -0.006 ± 0.0042 | 0.005 ± 0.0057 | 0.0635 ± 0.037 | 0.003 ± 0.073
